{
  "sequences": {"note": "Protein sequences, listed by entry. Tags and fused reporters are not part of them. Residues count along the entry.", "UniProt Q3ZCQ8, residues 45-353": "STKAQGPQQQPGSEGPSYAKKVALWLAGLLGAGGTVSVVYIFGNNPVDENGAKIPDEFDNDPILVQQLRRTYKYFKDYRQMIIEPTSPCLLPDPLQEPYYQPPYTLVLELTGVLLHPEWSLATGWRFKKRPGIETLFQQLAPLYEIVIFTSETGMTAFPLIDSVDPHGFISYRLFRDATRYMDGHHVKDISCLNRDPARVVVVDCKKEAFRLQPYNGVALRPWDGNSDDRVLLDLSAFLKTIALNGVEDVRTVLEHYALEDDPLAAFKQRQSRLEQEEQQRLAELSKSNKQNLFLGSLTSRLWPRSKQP"},
  "source": "paper PMC13196150",
  "key": {"[1]": {"target": "T1, GLUT10/V5 (glucose transporter 10, V5-tagged) (mouse) (UniProt Q8VHD6)", "T1 sequence": "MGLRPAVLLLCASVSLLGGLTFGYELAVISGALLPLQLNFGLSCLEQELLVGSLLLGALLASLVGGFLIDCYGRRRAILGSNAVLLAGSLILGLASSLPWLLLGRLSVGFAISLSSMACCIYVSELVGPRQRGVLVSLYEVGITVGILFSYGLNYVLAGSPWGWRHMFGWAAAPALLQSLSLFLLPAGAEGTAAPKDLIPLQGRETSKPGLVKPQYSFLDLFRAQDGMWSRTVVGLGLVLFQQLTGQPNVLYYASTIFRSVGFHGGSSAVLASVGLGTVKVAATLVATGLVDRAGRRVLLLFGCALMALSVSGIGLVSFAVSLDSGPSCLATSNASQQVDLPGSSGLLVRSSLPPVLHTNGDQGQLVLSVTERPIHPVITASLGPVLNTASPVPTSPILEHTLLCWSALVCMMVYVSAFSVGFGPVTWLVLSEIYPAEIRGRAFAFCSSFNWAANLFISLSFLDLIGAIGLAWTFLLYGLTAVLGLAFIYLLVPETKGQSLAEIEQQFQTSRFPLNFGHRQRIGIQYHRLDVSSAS", "test": "co-IP; whole-cell lysates of T-REx-293 cells expressing GLUT10/V5; IP with anti-V5 or, reciprocally, anti-TIM50 antibodies against control IgG; immunoblot for V5 and TIM50"}, "[2]": {"target": "TIM50 (mitochondrial inner membrane protein, mitochondrial translocase) (human (endogenous in T-REx-293)) (UniProt Q3ZCQ8)", "test": "co-IP; whole-cell lysates of T-REx-293 cells expressing GLUT10/V5; IP with anti-V5 or, reciprocally, anti-TIM50 antibodies against control IgG; immunoblot for V5 and TIM50"}},
  "note": "Results are given in words; binding and its absence hold for the method and conditions named. In cells and extracts the contact can be indirect. Some results given as binding are weak or reduced against the parent protein; the word gives no strength. Sequences can lack the tags named with a protein.",
  "data": [
    {"molecule": "TIM50 (mitochondrial inner membrane protein, mitochondrial translocase) (from UniProt Q3ZCQ8 45-353)", "values": [
      {"measurement": "binding", "setting": "[1]", "value": "binds"}
    ]},
    {"molecule": "GLUT10/V5 (glucose transporter 10, V5-tagged) (protein, UniProt Q8VHD6 1-536) MGLRPAVLLLCASVSLLGGLTFGYELAVISGALLPLQLNFGLSCLEQELLVGSLLLGALLASLVGGFLIDCYGRRRAILGSNAVLLAGSLILGLASSLPWLLLGRLSVGFAISLSSMACCIYVSELVGPRQRGVLVSLYEVGITVGILFSYGLNYVLAGSPWGWRHMFGWAAAPALLQSLSLFLLPAGAEGTAAPKDLIPLQGRETSKPGLVKPQYSFLDLFRAQDGMWSRTVVGLGLVLFQQLTGQPNVLYYASTIFRSVGFHGGSSAVLASVGLGTVKVAATLVATGLVDRAGRRVLLLFGCALMALSVSGIGLVSFAVSLDSGPSCLATSNASQQVDLPGSSGLLVRSSLPPVLHTNGDQGQLVLSVTERPIHPVITASLGPVLNTASPVPTSPILEHTLLCWSALVCMMVYVSAFSVGFGPVTWLVLSEIYPAEIRGRAFAFCSSFNWAANLFISLSFLDLIGAIGLAWTFLLYGLTAVLGLAFIYLLVPETKGQSLAEIEQQFQTSRFPLNFGHRQRIGIQYHRLDVSSAS", "values": [
      {"measurement": "binding", "setting": "[2]", "value": "binds"}
    ]}
  ]
}
